# Test results from PubChem BioAssay AID504834 (National Center for Advancing Translational Sciences (NCATS), 2011).
# About 22,000 (6.9%) of roughly 320,000 compounds were called active. Inconclusive means that the source gave no clear call. Such entries were picked first, then a sample of the others. The call rests on the fitted dose curve; in most records, active means well fitted inhibition curve with a large enough effect; inconclusive means small, poorly fitted or top-dose-only effect, or another doubt; inactive means no such curve, though single readings can be large or run the other way. Where the call is inconclusive, the potency comes from a doubtful curve fit.
# Assay: Primary qHTS for delayed death inhibitors of the malarial parasite plastid, 96 hour incubation
# Settings: P. falciparum luciferase reporter growth; series mostly up to 28.7 µM; activity change, negative = inhibition: at the top concentration
# In short: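 Infected RBCs, 2% Hct / 0.05% parasitemia final; luciferase-reporter P. falciparum; cpd 96 h, 37 C, 5% CO2; luciferase detection reagent; luminescence.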
# On the % scale 0 is the no-effect control and ±100 the full control effect; potency means the concentration at half of the fitted maximal effect.
SMILES,Potency,"activity change, negative = inhibition"
O=S(=O)(c1ccccc1)N(CC(O)Cn1c2ccccc2c2ccccc21)c1ccccc1 (stereo unspecified),active: 2.33 µM,–
CC(C)(C)Nc1nc2cc([N+](=O)[O-])ccc2o1,–,inactive: 31.6%
CCC(C)NCCC(=O)Nc1ccc(Cl)c(S(=O)(=O)Nc2ccc(Cl)cc2)c1 (stereo unspecified),active: 9.28 µM,–
CSc1sc(C(=O)OC(C)C)c2c1C(=O)CC(C)(C)C2,"inconclusive: 5.22 µM [inhibitor, partial curve]",–
NS(=O)(=O)c1cccc(NS(=O)(=O)c2ccc(/C=C/C(=O)O)cc2)c1,–,inactive: 25.1%
Cn1cc(C(=O)NCc2ccc(F)cc2)c(=O)c2cc(S(=O)(=O)N3CCCCC3)ccc21,–,inactive: -25.1%
O=C(Nc1cccc(F)c1)Nc1cnccn1,"inconclusive: 18.5 µM [inhibitor, single point]",–
O=C1N(Cc2cccc(Cl)c2)C[C@@H]2C[C@@H](c3cccn3-c3ccccn3)N3CCC[C@@]123,"inconclusive: 10.4 µM [inhibitor, single point]",–
CCOc1ccc(-c2nnc(Nc3ccc(OC)c(C(=O)N4CCCCC4)c3)c3ccccc23)cc1,active: 1.17 µM,–
CC1CC(CC(C)C(=O)NC(=S)Nc2ccc(S(N)(=O)=O)cc2)C(=O)O1 (stereo unspecified),"inconclusive: 16.5 µM [inhibitor, partial curve, poor fit]",–
O=C(CCc1nc2ccccc2c(=O)[nH]1)NNC(=O)COc1ccc(Br)cc1,–,inactive: -23.5%
CC(C)c1ccc(C(=O)N/N=C/c2cccc(Cl)c2Cl)cc1,–,inactive: 0%
CC(C)(C)OC(=O)N1CCC(NC(=O)c2ncn(Cc3ccccc3)c2C(=O)NC2CCN(C(=O)OC(C)(C)C)CC2)CC1,"inconclusive: 1.85 µM [inhibitor, full curve, poor fit]",–
Cc1ccccc1-c1noc(N)c1C#N,"inconclusive: 6.57 µM [inhibitor, partial curve, poor fit]",–
COc1ccccc1CNC(=O)C(CCSC)NC(=O)C1CCC(C)CC1 (stereo unspecified),"inconclusive: 8.28 µM [inhibitor, partial curve, poor fit]",–
Cc1csc(NC(=O)CS(=O)(=O)c2ccccc2)n1,"inconclusive: 11.7 µM [inhibitor, partial curve]",–
CCCc1nn2c(=O)cc(CSCC(=O)Nc3ccc(OC)cc3)nc2s1,–,inactive: -22.8%
COc1ccc(-c2nc(NC(=O)C3CC(=O)N(Cc4ccco4)C3)sc2C)cc1 (stereo unspecified),"inconclusive: 18.5 µM [inhibitor, single point]",–
CC(C)(C)OC(=O)NCCCCCc1nnc(SCc2cccc(F)c2)o1,–,inactive: -9.55%
COc1cccc(NC(=O)c2cccc(C)c2[N+](=O)[O-])c1,"inconclusive: 0.208 µM [inhibitor, partial curve, poor fit]",–
Cc1cc(C)c2nc(SCC(=O)N3CCCCC3)c(C#N)cc2c1,"inconclusive: 6.57 µM [inhibitor, partial curve, poor fit]",–
COc1ccc(CN2CCN(CC3CC3)CC2CCO)c(C)c1C (stereo unspecified),"inconclusive: 0.586 µM [inhibitor, full curve, poor fit]",–
CCN(c1ccccc1)S(=O)(=O)c1ccc(Cl)c(NC(=O)CSc2nnc(C)s2)c1,"inconclusive: 11.7 µM [inhibitor, single point]",–
CC1=C(C(=O)Nc2ccccc2)C(c2ccccc2[N+](=O)[O-])NC(=O)N1 (stereo unspecified),"inconclusive: 9.28 µM [inhibitor, single point]",–

SMILES,Potency,"activity change, negative = inhibition"
O=C(N/N=C/c1ccccn1)c1ccncc1,–,inactive: 38.6%
CCCc1cc(=O)n2[nH]c(NC(=O)c3ccco3)nc2n1,"inconclusive: 18.5 µM [inhibitor, partial curve, poor fit]",–
O=[N+]([O-])c1cccc(/C=N/Nc2ncc(Br)cn2)c1,"inconclusive: 11.7 µM [inhibitor, single point]",–
Cc1c(C(=O)N2CCCCC2)c(S(=O)(=O)N2CCN(c3ccccc3F)CC2)c(C)n1C,"inconclusive: 11.7 µM [inhibitor, partial curve]",–
CC(C)Oc1cccc(C(=O)NC(=S)Nc2ccc(N3CCN(C)CC3)cc2)c1,active: 11.7 µM,–
Cn1ncc([N+](=O)[O-])c1C(=O)Nc1ccc(C2CCCCC2)cc1,"inconclusive: 2.33 µM [inhibitor, single point]",–
COc1ccc(-c2cn3c(C)c(C(=O)NC(C)C)sc3n2)cc1,–,inactive: -0.65%
CCCC(=O)Nc1ccc(C(=O)NNC(=O)c2cccc([N+](=O)[O-])c2)cc1,–,inactive: 14.1%
CCOc1ccc(-n2c(SCc3ccc([N+](=O)[O-])cc3)nnc2-c2ccc(OC)cc2)cc1,active: 8.28 µM,–
N#Cc1ccccc1S(=O)(=O)N1CCN(C(=O)[C@@H]2CCCN2C(=O)c2cccs2)CC1,"inconclusive: 18.5 µM [inhibitor, single point]",–
COc1ccc(NC(=O)CN(C)S(=O)(=O)c2cnc[nH]2)cc1,"inconclusive: 13.1 µM [inhibitor, single point]",–
O=C(Nc1ccccc1)OCCOc1ccccc1Br,"inconclusive: 18.5 µM [inhibitor, single point]",–
O=C(CSc1nnc(-c2ccccc2)n1Cc1ccccc1)NNC(=O)c1ccccc1O,–,inactive: 1.91%
Cc1ccc(NS(=O)(=O)c2cc(NC(=O)c3ccc4c(c3)NC(=O)CS4)ccc2Cl)c(C)c1,active: 7.38 µM,–
O=C(Nc1ccccc1N1CCOCC1)c1cccc(Oc2ccccc2)c1,"inconclusive: 18.5 µM [inhibitor, single point]",–
Cc1csc(/N=C/N(C)C)c1C#N,–,inactive: 26.6%
Cn1ccnc1SCC(=O)Nc1ccc2c(c1)OCCO2,"inconclusive: 13.1 µM [inhibitor, partial curve, poor fit]",–
CC(NC(=O)OCc1ccccc1)C(=O)OCN1C(=O)c2ccccc2C1=O (stereo unspecified),active: 11.7 µM,–
CCCOC(=O)C1C2C=C[C@]3(CN(CCc4ccccc4)C(=O)[C@H]13)O2 (stereo partly specified),"inconclusive: 18.5 µM [inhibitor, single point]",–
C=CCN(c1ccc(Cl)cc1)S(=O)(=O)c1cccc(C(=O)OCC(=O)N(C)C)c1,"inconclusive: 0.147 µM [inhibitor, full curve, poor fit]",–
Cc1ccccc1NC1=C(Cl)C(=O)OC1NC(=O)c1ccccc1 (stereo unspecified),–,inactive: 39.6%
CCOc1ccc2nc(N(CCCN(C)C)C(=O)c3ccc4c(c3)CCCC4)sc2c1,active: 5.86 µM,–
COCC(C)NC(=O)CCc1nnc(C2(c3ccc(Cl)cc3)CCC2)o1 (stereo unspecified),–,inactive: -2.6%
COc1ccc(N2CCN(S(=O)(=O)CCNC(=O)c3ccc(Br)o3)CC2)cc1,"inconclusive: 10.4 µM [inhibitor, partial curve, poor fit]",–

SMILES,Potency,"activity change, negative = inhibition"
CSc1nc2c(c(=O)[nH]c(=O)n2C)n1Cc1ccccc1,"inconclusive: 20.8 µM [inhibitor, partial curve, poor fit]",–
CCOc1ccc(N(C(=O)Cn2nnc3ccccc32)C(C(=O)NC(C)(C)CC)c2cccn2C)cc1 (stereo unspecified),–,inactive: 1.59%
Cc1cccc(C)c1-n1c(C)nn(CCOc2ccccc2)c1=O,"inconclusive: 0.185 µM [inhibitor, partial curve, poor fit]",–
COc1ccccc1C(=O)N1N=C(c2ccc(NS(C)(=O)=O)cc2)CC1c1cccs1 (stereo unspecified),–,inactive: 14.8%
COc1ccccc1-c1cc(C(F)(F)F)nc(S(=O)(=O)CCCC(=O)O)n1,"inconclusive: 7.38 µM [inhibitor, partial curve, poor fit]",–
COc1cccc(C2=CC(=O)C[C@H](c3ccc(F)cc3)C2)c1,"inconclusive: 3.7 µM [inhibitor, single point]",–
Cc1ccc(NC(=O)CSc2nc(-c3ccco3)nc3cc(=O)[nH]n23)c(Cl)c1,"inconclusive: 4.65 µM [inhibitor, full curve, poor fit]",–
O=C(CN1CCN(Cc2ccccc2)CC1)Nc1nnc(C(F)(F)F)s1,"inconclusive: 14.7 µM [inhibitor, single point]",–
CCCCCN(C(=O)CCC(=O)OCC(=O)N1CCCC(C)C1)c1c(N)n(CCCC)c(=O)[nH]c1=O (stereo unspecified),–,inactive: 30%
O=C(Nc1cccc(N2C(=O)C3CCCCC3C2=O)c1)c1ccccc1 (stereo unspecified),"inconclusive: 9.28 µM [inhibitor, partial curve]",–
OCCCCNc1cccc2ccccc12,"inconclusive: 3.7 µM [inhibitor, partial curve, poor fit]",–
Cn1c(CNc2ccc(O)cc2)nc2ccccc21,–,inactive: -20.5%
O=C(NCc1ccccn1)c1ccc(S(=O)(=O)Nc2ccccc2F)cc1,"inconclusive: 18.5 µM [inhibitor, single point]",–
COc1ccc(-c2nc(C)ncc2N=Nc2ccccc2)cc1,active: 3.7 µM,–
CCCOc1ccc(C2CC(=O)NC2=O)cc1 (stereo unspecified),–,inactive: 42.8%
CCc1ccc(N(CC(=O)NCc2ccc(F)cc2)C(=O)c2csnn2)cc1,"inconclusive: 18.5 µM [inhibitor, single point]",–
O=C(Nc1ccc(S(=O)(=O)Nc2ccccc2)cc1)C1CC1,–,inactive: -0.671%
O=C(CN1C(=O)C(=O)N(Cc2ccccc2)C1=O)Nc1ccc(OC(F)F)cc1,–,inactive: 14.8%
Cc1cc(C)c(NC(=O)CSc2nnc(SCC(=O)Nc3c(C)cc(C)cc3C)n2N)c(C)c1,–,inactive: -29.1%
C/C(=N\NC(=O)C1CC1)c1cccs1,–,inactive: -21.5%
CCCCCc1c(C)nc(Nc2ccccc2)[nH]c1=O,"inconclusive: 18.5 µM [inhibitor, single point]",–
CCC/C(O)=C1\C(=O)CC(C)(C)CC1=NCc1ccccc1,"inconclusive: 18.5 µM [inhibitor, single point]",–
CC(=O)c1cc(-c2ccccc2)n(CC(=O)N2CCCCC2)c1C,"inconclusive: 5.22 µM [inhibitor, single point]",–
